Test results as given in paper PMC6554399.

Sequences of proteins named here, by UniProt entry; tags and fusion partners are left off. Residues count along the entry.
UniProt P18065, residues 36-325: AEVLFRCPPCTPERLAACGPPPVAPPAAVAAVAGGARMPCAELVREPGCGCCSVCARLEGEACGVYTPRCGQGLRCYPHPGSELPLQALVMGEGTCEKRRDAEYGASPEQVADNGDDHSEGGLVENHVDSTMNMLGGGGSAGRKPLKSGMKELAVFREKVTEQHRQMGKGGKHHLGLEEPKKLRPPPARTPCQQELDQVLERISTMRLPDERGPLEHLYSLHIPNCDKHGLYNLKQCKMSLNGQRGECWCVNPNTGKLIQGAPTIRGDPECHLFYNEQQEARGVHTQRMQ
UniProt P06276, residues 29-602: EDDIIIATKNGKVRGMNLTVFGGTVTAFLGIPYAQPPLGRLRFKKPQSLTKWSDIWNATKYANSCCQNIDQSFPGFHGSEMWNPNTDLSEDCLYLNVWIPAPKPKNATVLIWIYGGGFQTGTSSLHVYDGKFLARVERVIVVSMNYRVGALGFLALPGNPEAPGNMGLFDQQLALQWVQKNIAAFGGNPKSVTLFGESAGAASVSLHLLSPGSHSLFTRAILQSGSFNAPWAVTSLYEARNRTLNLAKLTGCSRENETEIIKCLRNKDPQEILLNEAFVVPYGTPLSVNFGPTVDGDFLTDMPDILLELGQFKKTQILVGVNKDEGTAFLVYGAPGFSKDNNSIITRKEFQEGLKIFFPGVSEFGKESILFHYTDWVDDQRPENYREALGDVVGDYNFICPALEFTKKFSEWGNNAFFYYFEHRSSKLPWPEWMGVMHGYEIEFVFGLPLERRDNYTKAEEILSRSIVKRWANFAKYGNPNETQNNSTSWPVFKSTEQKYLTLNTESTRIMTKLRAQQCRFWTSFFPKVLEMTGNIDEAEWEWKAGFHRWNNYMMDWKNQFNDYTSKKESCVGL

Target: insulin growth factor binding protein 2 (IGFBP2) (human (endogenous in plasma)) (UniProt P18065)
Assay: affinity purification with mass spectrometry; IP-MS/MS: antibody against the bait covalently coupled to magnetic beads, pooled human EDTA plasma diluted 1:10 in assay buffer (PVA, PVP, casein, 10% rabbit IgG), heat-treated (56 °C, 30 min) or untreated, overnight at 23 °C; washed with 0.03% Chaps in PBS, digested on beads, LC-MS/MS, MaxLFQ, z-scores over 414 IPs

With “butyrylcholine esterase (BCHE) (from UniProt P06276 29-602) (enzyme)” the binding was “binds”.

Results are given in words; binding and its absence hold for the method and conditions named. In cells and extracts the contact can be indirect. These calls come from enrichment with a bait or labelling near it, and not all partners need be listed.
